These are yes or no findings as the source states them, for the method shown. In cells and extracts the contact can be indirect. These calls come from enrichment with a bait or labelling near it, and not all partners need be listed. For some of these results: A no says only that the protein was not detected with the bait.
Each molecule was assayed against SMARCA4 (BRG1) (human (endogenous in G401)) (UniProt P51532) (assay: condition: only in G401 cells re-expressing SMARCB1 W281P or I315R instead of wild type; affinity purification with mass spectrometry; as a1, the samples from G401 cells re-expressing SMARCB1 W281P or I315R compared with wild type SMARCB1 (L2FC < -1.5, p < 0.05)).

Amino acid sequences for entries named in this document (tags omitted).
UniProt P51532: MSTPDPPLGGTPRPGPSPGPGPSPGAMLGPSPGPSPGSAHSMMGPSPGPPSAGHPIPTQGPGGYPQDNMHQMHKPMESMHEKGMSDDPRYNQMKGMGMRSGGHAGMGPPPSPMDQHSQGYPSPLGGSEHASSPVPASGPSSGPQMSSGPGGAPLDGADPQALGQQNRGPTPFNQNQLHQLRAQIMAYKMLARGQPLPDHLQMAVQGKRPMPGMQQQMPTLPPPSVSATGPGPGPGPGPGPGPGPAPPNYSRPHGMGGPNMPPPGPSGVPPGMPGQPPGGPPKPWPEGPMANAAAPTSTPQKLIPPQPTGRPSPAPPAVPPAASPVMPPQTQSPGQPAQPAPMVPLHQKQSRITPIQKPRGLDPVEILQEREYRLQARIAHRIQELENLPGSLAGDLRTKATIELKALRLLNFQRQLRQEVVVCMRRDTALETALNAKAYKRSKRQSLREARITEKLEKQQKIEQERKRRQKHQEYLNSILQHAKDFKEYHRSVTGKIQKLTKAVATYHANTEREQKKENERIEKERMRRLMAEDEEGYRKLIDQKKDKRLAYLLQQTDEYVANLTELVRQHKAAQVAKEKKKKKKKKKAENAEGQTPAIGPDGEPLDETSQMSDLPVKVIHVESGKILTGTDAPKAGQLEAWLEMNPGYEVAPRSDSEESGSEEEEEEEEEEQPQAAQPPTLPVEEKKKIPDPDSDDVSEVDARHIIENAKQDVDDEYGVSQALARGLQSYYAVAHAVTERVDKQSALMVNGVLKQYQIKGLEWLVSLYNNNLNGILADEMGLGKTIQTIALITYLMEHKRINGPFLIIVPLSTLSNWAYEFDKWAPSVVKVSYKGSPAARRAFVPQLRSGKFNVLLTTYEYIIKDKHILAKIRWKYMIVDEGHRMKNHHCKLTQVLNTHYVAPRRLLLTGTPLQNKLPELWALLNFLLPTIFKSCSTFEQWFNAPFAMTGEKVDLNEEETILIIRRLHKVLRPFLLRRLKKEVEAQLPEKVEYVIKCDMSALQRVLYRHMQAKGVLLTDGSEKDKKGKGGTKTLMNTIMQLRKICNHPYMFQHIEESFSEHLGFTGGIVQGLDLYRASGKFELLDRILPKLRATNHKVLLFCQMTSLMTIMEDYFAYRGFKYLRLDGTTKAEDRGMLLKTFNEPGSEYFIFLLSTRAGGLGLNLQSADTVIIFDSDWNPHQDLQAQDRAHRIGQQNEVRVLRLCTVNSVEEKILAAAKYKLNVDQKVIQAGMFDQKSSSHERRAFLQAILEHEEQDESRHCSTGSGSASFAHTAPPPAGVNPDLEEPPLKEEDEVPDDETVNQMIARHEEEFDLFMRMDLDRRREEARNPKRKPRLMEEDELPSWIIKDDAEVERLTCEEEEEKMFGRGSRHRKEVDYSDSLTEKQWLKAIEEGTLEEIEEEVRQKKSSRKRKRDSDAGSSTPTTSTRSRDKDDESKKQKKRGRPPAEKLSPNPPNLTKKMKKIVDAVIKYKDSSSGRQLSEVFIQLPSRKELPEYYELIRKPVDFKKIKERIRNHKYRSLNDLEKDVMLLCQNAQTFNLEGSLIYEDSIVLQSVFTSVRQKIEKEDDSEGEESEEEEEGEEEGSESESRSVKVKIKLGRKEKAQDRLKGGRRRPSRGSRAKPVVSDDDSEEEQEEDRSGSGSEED
UniProt Q92785: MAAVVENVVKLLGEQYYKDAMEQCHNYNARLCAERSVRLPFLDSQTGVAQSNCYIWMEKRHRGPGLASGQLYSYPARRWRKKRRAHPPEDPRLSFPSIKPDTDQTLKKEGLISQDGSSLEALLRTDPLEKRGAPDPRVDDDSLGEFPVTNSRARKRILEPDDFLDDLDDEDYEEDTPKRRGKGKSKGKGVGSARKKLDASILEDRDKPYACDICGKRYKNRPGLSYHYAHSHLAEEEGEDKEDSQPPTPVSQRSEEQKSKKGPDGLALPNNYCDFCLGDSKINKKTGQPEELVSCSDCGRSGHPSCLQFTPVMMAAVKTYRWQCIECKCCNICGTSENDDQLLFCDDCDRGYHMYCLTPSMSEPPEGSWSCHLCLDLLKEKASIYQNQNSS
UniProt Q9NZM4: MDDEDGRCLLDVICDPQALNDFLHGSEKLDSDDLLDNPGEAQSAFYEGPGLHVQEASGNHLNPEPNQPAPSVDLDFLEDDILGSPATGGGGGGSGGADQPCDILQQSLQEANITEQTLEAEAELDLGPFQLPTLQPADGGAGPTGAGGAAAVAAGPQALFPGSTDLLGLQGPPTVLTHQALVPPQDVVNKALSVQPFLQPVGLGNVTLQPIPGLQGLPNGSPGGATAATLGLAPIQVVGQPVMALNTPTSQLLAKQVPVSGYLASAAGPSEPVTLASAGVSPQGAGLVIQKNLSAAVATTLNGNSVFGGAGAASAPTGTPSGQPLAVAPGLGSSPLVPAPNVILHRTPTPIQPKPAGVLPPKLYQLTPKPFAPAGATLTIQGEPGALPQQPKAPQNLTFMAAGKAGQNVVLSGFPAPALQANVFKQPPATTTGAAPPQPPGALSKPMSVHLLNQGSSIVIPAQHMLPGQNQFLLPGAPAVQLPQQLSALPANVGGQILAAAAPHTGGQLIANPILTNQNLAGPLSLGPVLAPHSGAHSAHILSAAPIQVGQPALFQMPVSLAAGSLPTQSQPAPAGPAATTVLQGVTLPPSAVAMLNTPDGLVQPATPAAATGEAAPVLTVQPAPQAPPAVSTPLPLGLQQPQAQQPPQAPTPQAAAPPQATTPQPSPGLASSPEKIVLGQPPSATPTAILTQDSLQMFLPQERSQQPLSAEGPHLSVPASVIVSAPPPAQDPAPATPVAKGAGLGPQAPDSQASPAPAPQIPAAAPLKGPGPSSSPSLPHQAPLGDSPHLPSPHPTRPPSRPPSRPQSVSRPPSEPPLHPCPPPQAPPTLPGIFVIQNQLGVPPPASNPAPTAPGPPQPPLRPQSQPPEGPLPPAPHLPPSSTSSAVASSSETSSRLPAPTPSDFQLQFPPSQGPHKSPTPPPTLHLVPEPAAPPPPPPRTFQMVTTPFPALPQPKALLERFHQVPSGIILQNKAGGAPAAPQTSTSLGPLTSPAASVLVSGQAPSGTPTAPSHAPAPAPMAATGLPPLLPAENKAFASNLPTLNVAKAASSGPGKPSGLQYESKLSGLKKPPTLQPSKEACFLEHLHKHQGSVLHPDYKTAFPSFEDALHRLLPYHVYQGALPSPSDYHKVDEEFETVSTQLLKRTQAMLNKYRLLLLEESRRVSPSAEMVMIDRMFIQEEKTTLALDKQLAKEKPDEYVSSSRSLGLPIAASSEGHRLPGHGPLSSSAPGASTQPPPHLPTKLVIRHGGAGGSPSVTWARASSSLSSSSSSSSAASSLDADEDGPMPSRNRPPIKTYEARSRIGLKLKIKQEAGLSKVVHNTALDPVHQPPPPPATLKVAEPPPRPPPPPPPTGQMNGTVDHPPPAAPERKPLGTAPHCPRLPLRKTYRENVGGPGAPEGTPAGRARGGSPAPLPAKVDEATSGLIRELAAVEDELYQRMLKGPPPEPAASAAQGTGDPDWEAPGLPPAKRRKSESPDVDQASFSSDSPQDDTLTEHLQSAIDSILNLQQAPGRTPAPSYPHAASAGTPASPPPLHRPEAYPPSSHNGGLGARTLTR
UniProt Q9H8M2: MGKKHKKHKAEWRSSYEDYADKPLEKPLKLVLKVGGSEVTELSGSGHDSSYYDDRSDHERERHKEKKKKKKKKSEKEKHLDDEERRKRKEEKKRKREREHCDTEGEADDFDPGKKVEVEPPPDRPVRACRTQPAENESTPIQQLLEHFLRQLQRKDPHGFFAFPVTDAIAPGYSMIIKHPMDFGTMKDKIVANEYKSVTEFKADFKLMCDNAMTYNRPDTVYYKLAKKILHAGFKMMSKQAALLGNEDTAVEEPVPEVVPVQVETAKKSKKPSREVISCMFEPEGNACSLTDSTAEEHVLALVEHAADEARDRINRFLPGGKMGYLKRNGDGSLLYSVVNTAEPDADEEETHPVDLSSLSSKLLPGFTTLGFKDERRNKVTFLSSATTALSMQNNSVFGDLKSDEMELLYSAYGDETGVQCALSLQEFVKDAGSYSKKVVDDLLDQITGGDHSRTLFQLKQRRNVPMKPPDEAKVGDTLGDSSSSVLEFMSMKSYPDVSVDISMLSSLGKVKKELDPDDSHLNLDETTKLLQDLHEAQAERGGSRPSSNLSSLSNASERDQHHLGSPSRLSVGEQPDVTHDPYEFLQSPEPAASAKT
UniProt Q92925: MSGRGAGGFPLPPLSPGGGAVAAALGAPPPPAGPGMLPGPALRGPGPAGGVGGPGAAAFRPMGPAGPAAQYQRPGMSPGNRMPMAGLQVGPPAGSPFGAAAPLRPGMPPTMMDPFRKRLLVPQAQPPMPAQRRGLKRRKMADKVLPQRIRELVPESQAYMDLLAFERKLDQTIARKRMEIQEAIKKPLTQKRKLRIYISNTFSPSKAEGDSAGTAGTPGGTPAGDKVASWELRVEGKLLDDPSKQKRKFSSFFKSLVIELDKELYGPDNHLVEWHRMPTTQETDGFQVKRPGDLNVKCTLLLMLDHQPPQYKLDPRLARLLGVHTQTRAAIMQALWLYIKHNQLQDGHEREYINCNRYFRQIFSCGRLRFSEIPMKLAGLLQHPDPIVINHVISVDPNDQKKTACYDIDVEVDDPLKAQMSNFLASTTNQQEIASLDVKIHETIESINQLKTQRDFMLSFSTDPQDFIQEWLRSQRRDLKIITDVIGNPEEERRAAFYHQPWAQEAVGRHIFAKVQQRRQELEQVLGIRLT
UniProt Q6STE5: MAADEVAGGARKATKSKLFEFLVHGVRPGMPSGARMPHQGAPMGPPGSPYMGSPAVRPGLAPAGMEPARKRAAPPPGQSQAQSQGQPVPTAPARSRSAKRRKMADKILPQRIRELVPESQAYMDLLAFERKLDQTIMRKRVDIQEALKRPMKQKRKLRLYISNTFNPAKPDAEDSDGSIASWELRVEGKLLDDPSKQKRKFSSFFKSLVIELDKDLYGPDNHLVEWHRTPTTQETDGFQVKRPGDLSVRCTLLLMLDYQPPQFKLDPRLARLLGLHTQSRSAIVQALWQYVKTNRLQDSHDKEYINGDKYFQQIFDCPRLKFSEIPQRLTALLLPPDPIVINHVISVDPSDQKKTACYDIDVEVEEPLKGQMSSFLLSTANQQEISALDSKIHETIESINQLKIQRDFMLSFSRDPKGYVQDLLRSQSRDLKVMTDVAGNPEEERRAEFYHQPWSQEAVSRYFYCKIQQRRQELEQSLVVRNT

Row | binding | Molecule
1 | no binding | DPF2 (from UniProt Q92785 1-391)

Each molecule was assayed against SMARCA4 (BRG1) (human (endogenous in G401)) (UniProt P51532) (assay: affinity purification with mass spectrometry; SMARCA4 immunoprecipitated with BRG1 (G7) antibody cross-linked to Protein G magnetic beads from 800 ug nuclear extract of G401 cells after 48 h induction of wild type, missense (W281P, I315R) or nonsense (W281*, I315*) SMARCB1; overnight at 4 °C; on-bead digestion, LC-MS/MS, label-free quantification).

Row | binding | Molecule
2 | binds | GLTSCR1 (from UniProt Q9NZM4 1-1560)
3 | binds | BRD9 (from UniProt Q9H8M2 1-597)
4 | binds | SMARCD2 (from UniProt Q92925 1-531)

Further lines, the molecule ahead of its results:

Row | Molecule | binding
5 | SMARCD3 (from UniProt Q6STE5 1-483) | binds
6 | DPF2 (from UniProt Q92785 1-391) | binds
7 | PHF10 (protein, UniProt Q8WUB8 1-498) MAAAAGPGAALSPRPCDSDPATPGAQSPKDDNEDNSNDGTQPSKRRRMGSGDSSRSCETSSQDLGFSYYPAENLIEYKWPPDETGEYYMLQEQVSEYLGVTSFKRKYPDLERRDLSHKEKLYLRELNVITETQCTLGLTALRSDEVIDLMIKEYPAKHAEYSVILQEKERQRITDHYKEYSQMQQQNTQKVEASKVPEYIKKAAKKAAEFNSNLNRERMEERRAYFDLQTHVIQVPQGKYKVLPTERTKVSSYPVALIPGQFQEYYKRYSPDELRYLPLNTALYEPPLDPELPALDSDGDSDDGEDGRGDEKRKNKGTSDSSSGNVSEGESPPDSQEDSFQGRQKSKDKAATPRKDGPKRSVLSKSVPGYKPKVIPNAICGICLKGKESNKKGKAESLIHCSQCENSGHPSCLDMTMELVSMIKTYPWQCMECKTCIICGQPHHEEEMMFCDMCDRGYHTFCVGLGAIPSGRWICDCCQRAPPTPRKVGRRGKNSKEG | binds

Reference: PMC13237135
